Test results published in US12060400B2, “Peptides for use in immunotherapy against cancers” (Immatics Biotechnologies GmbH, priority 2018, dated 2024).

Tests used:
[1] = test system: source gene exon mRNA in tumor and normal tissue samples; experiment: Expression profiling (RNAseq) of genes encoding the peptides, tumor versus normal tissues; design: species or system human; conditions: RNAseq, Table 9a; for Exon Expression in tumor types vs normal tissue panel: highly over-expressed (++): tumor types in which the peptide's exon is highly over-expressed (++) vs panel of normal tissues; for Exon Expression in tumor types vs normal tissue panel: over-expressed (+): tumor types in which the peptide's exon is over-expressed (+) vs panel of normal tissues
[2] = test system: HLA molecules of primary tumor and normal tissue samples (cancer entities); experiment: Identification and label-free LC-MS quantitation of HLA-presented tumor-associated peptides on tissue samples; design: species or system human; conditions: cancer entities on whose tumor tissue samples the HLA-presented peptide was found (LC-MS); abbreviations in the footnotes of Table 8a

Substance | Exon Expression in tumor types vs normal tissue panel: highly over-expressed (++) [1] | Peptide Presentation on cancer entities [2] | Exon Expression in tumor types vs normal tissue panel: over-expressed (+) [1] | Exon Expression in tumor types vs normal tissue panel: very highly over-expressed (+++) ([1]; tumor types in which the peptide's exon is very highly over-expressed (+++) vs panel of normal tissues)
81: peptide found in SLC5A4 (gene looked up) (AYLKLLPMF; listed as Homo sapiens) [compound 81] | MEL | BRCA, HNSCC, MEL |  | 
120: peptide found in QRFPR (gene looked up) (VYAFMNENF; listed as Homo sapiens) [compound 120] | RCC | RCC | NSCLCsquam, OSCAR | 
247: peptide found in MPL (gene looked up) (VHSYLGSPF; listed as Homo sapiens) [compound 247] | AML | RCC |  | 
372: peptide found in PDE11A (gene looked up) (LYHNWRHAF; listed as Homo sapiens) [compound 372] |  | BRCA, OC, RCC | PRCA | 
308: peptide found in TAS2R38 (gene looked up) (AAFISVPLLI; listed as Homo sapiens) [compound 308] | CRC | HCC | GBC, GC, PACA, UBC | 
305: peptide found in MRGPRX1 (gene looked up) (RNAFSIYIL; listed as Homo sapiens) [compound 305] | MEL | CRC, NSCLCadeno | HNSCC | 
55: peptide found in CDK6 (gene looked up) (AVLRHLETF; listed as Homo sapiens) [compound 55] | AML | CCC | GBM, GC, OSCAR | 
95: peptide found in OR51E2 (gene looked up) (IGLSVVHRF; listed as Homo sapiens) [compound 95] |  | PRCA |  | PRCA
190: peptide found in FLT3 (gene looked up) (IYIIMQSCW; listed as Homo sapiens) [compound 190] | AML | AML |  | 
226: peptide found in FLT3 (gene looked up) (TYSTNRTMI; listed as Homo sapiens) [compound 226] | AML | CCC |  | 

For part of these data: Expression grades refer to the transcript from which the peptide derives; gene names, where given, were looked up from the sequence.
